The source of these data is PMC7862700.

Chains of the proteins cited; added tags and fusions are not shown. Lines headed by an entry give the natural chain unless they say otherwise; changes in a name come on top.
UniProt Q00613: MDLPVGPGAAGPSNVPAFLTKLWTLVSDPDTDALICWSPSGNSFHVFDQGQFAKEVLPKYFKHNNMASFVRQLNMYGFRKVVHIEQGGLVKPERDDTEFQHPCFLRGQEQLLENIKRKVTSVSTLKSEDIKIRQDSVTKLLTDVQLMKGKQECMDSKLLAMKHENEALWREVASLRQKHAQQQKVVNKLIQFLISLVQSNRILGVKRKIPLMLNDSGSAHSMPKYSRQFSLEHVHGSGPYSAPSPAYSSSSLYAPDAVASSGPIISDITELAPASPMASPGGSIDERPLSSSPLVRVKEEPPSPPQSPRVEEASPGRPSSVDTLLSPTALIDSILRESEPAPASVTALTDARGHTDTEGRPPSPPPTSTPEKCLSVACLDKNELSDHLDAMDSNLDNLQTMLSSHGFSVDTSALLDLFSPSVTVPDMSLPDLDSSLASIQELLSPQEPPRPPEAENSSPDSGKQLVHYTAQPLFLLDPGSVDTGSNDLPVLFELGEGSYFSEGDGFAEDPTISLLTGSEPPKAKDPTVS

For one test, the target named is HSF1 (UniProt Q00613). In words: DAPPL (digital affinity profiling via proximity ligation, sequencing). As to conditions: 10 mM Tris-HCl pH 7.5, 50 mM NaCl, 1 mM DTT, 4% glycerol, room temperature, 30 min; GST-TFs on glutathione beads, 16-mer random dsDNA library, 0.1% …; high values mean tight binding; double strand, one strand shown; scale: fold enrichment (6-mer frequency, TF over GST control).

The target of the next test is T1, ELF2 (UniProt Q15723).
T1 sequence: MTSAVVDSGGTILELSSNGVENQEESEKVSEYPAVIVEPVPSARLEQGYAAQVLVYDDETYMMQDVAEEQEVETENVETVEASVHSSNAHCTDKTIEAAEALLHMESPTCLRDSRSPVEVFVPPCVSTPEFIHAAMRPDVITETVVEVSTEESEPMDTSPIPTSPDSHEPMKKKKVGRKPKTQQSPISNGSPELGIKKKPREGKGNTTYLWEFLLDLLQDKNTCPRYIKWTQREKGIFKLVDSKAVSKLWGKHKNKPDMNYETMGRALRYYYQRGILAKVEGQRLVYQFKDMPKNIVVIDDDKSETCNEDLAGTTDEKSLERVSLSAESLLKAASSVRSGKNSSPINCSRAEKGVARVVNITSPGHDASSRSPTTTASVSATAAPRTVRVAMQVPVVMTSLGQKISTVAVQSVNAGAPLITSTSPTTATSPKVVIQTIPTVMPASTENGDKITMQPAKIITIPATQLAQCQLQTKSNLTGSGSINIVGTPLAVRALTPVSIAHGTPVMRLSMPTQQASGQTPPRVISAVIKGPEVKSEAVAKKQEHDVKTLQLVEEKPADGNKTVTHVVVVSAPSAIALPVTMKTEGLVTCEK
The description is as above. As to conditions: 10 mM Tris-HCl pH 7.5, 50 mM NaCl, 1 mM DTT, 4% glycerol, room temperature, 30 min; GST-TFs on glutathione beads, 16-mer random dsDNA library, 0.1% …; high values mean tight binding; double strand, one strand shown; scale: fold enrichment (6-mer frequency, TF over GST control).

The entries are a selection whose mix differs from that of the whole data set. For part of these data: At the low end of the ranking the order means little. The list shows a part of the results. For part of these data: Construct or isoform of the protein are uncertain.

As for GCCTCT, the values for the binding signal with HSF1 and in the test with ELF2 were 1.25 and 1.3, respectively.

With AACAGA, the binding signal worked out at 0.993 with HSF1 and 0.963 with ELF2.

For the sequence GTGCAT, the binding signal with HSF1 was determined as 0.765; with ELF2, 1.06.

In the case of CGGAAC, the results for the binding signal with HSF1 and in the test with ELF2 were 0.685 and 1.61, respectively.

With AGATGT, the binding signal in the test with HSF1 stood at 0.965; in the test with ELF2 it was 0.9.

Turning to GCACAC, the binding signal in the test with HSF1 was 0.742; with ELF2 it was 0.99.

With AAAGTC, the binding signal with HSF1 was 0.982; in the test with ELF2, 0.877.

As for ACTGAT, the binding signal worked out at 1.22 with HSF1 and 1.21 in the test with ELF2.

As to GTTTAT, the binding signal with HSF1 is 1.14; with ELF2 it was 1.08.

Turning to CACGGC, the binding signal in the test with HSF1 came out at 0.761; in the test with ELF2 it was 0.913.

Consider CCTGTA, for which the binding signal with HSF1 turned out to be 0.962; with ELF2, 1.25.

For the sequence TGGCCG, the binding signal in the test with HSF1 was 0.884; with ELF2, 1.01.

Regarding CGATGC, the binding signal was 0.945 with HSF1 and 1.06 with ELF2.

For the sequence GAACTG, the results for the binding signal with HSF1 and in the test with ELF2 were 0.853 and 1.08, respectively.

As for CTCAGT, the figures for the binding signal in the test with HSF1 and with ELF2 were 0.971 and 1.14, respectively.

Take AGGTGT: the binding signal is 0.717 in the test with HSF1 and 0.782 in the test with ELF2.

Regarding AGCTCT, the binding signal with HSF1 was 1.25; with ELF2, 1.15.

In the case of GTCCCA, the binding signal worked out at 0.875 with HSF1 and 1.02 with ELF2.

With AGCATC, the binding signal with HSF1 and with ELF2 was 1.02 in each case.

Consider GCTGCG, for which the binding signal with HSF1 amounted to 0.978; with ELF2, 1.09.

In the case of TTGACG, the binding signal in the test with HSF1 turned out to be 0.909; in the test with ELF2, 1.02.

As to TCATCG, the results for the binding signal with HSF1 and with ELF2 were 1.12 and 0.911, respectively.

Regarding CATGGG, the values for the binding signal with HSF1 and in the test with ELF2 were 0.857 and 0.965, respectively.

In the case of ACGACG, the binding signal with HSF1 is 1.02; in the test with ELF2 it was 1.07.

Consider TTCGAT, for which the figures for the binding signal with HSF1 and with ELF2 were 1.79 and 1.27, respectively.

For the sequence TAGGCC, the binding signal with HSF1 is 0.968; with ELF2, 0.908.

With GTGGTA, the binding signal in the test with HSF1 amounted to 0.835; with ELF2 it was 0.903.

Consider TCATAC, for which the binding signal worked out at 0.904 with HSF1 and 1.07 with ELF2.

In the case of ATACAT, the binding signal was 1.01 with HSF1 and 1.27 with ELF2.

Regarding TATCTG, the binding signal with HSF1 was determined as 1.36; in the test with ELF2 it was 1.21.

Turning to GACCAA, the values for the binding signal in the test with HSF1 and in the test with ELF2 were 0.771 and 0.92, respectively.

As to TGTTGG, the binding signal in the test with HSF1 is 0.805; in the test with ELF2, 0.918.

For TGCATA, the binding signal was determined as 0.979 with HSF1 and 1.09 in the test with ELF2.

On to AAACCG, for which the binding signal with HSF1 is 0.813; in the test with ELF2, 1.23.

Consider ATGTTA, for which the binding signal with HSF1 was determined as 1.12; with ELF2 it was 1.19.

CTACAG: the binding signal in the test with HSF1 stood at 0.957; with ELF2 it was 1.03.

In the case of AGTGAC, the binding signal in the test with HSF1 turned out to be 0.77; in the test with ELF2, 1.07.

On to CATTGG, for which the binding signal came to 0.801 with HSF1 and 0.887 with ELF2.

With AGTTGC, the binding signal with HSF1 was 0.764; with ELF2, 1.01.

For TCGTCA, the binding signal stood at 0.908 with HSF1 and 0.967 with ELF2.

As to TTTGTT, the binding signal in the test with HSF1 is 1.3; in the test with ELF2, 1.27.

On to ACTTGA, for which the binding signal in the test with HSF1 amounted to 0.906; with ELF2 it was 0.897.

On to GGCTAT, for which the binding signal was found to be 0.921 with HSF1 and 0.976 with ELF2.

For ACATAG, the binding signal came to 0.951 with HSF1 and 0.975 in the test with ELF2.

Regarding ACTACG, the results for the binding signal in the test with HSF1 and with ELF2 were 1.09 and 1.27, respectively.

Regarding TTTCGT, the binding signal came to 1.48 in the test with HSF1 and 1.33 with ELF2.

As for CAGCAC, the binding signal with HSF1 was found to be 0.825; in the test with ELF2 it was 0.893.

Regarding CCGGTC, the binding signal with HSF1 stood at 0.552; with ELF2, 1.19.

For the sequence GCAATT, the binding signal with HSF1 came to 0.969; in the test with ELF2 it was 1.16.

Consider CTAACT, for which the binding signal was 1.19 with HSF1 and 1.26 with ELF2.

For GAACAA, the results for the binding signal with HSF1 and with ELF2 were 1.5 and 1.24, respectively.

Regarding CATCCA, the binding signal with HSF1 is 0.969; with ELF2, 0.951.

Turning to GGTAAT, the binding signal turned out to be 1.27 with HSF1 and 1.09 with ELF2.

TAACAG: the binding signal in the test with HSF1 and with ELF2 was 1.02 in each case.

On to TGCGGC, for which the binding signal in the test with HSF1 was 0.883; with ELF2, 1.04.

Regarding TTACGC, the binding signal with HSF1 stood at 1.39; with ELF2 it was 1.

For the sequence TTCGCC, the binding signal came out at 1.14 with HSF1 and 1.1 with ELF2.

For GATGTT, the binding signal with HSF1 is 1.18; with ELF2, 1.27.

Turning to GCACTG, the binding signal with HSF1 was determined as 0.813; in the test with ELF2, 1.06.

Consider AGTGTT, for which the binding signal was 0.955 with HSF1 and 1.13 in the test with ELF2.
